Measurements reported in PubChem BioAssay AID504795 (Drosophila RNAi Screening Center, 2011).

Screen: 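Genes required for normal axon extension and glial cell shape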 (primary screen)
Cells: primary Drosophila neurons and glia
Reagents: long dsRNA against Drosophila genes, 250 ng dsRNA per well
Timing: one week
Measured: 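GFP-labelled neurons and glia imaged live by automated microscope one week after 250 ng dsRNA per well; morphology scored by eye as descriptive phenotype terms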
Only reagents picked out of a larger screen are listed. 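Every listed dsRNA shows some phenotype; how reagents were selected for listing is not stated.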 No sequences are given here.

Gene	PubChem SID	phenotype seen, replicate 1	phenotype seen, replicate 2
RpL18A (GeneID 36985)	SID104187330	reduced axon outgrowth	
RpL26 (GeneID 40060)	SID104190518	beaded; swollen axons	
Rpi (GeneID 246599)	SID104184375	sheet-like cell extensions	
MTF-1 (GeneID 39089)	SID104191009	axon bundles split apart	
Muc68Ca (GeneID 2768980)	SID104190105	weaker green signal	
CG15109 (GeneID 37195)	SID104186328	axon bundles split apart	
Cyfip (GeneID 41861)	SID104195471	abnormal cell clusters	
pygo (GeneID 43718)	SID104194114	too many neurite branches	
ubl (GeneID 35592)	SID104184790	abnormal cell clusters	
St2 (GeneID 41098)	SID104194934	abnormal cell clusters	
mdu (GeneID 32201)	SID104199652	abnormal cell clusters	
dpr9 (GeneID 2768670)	SID104194326	sheet-like cell extensions	
CCHa1 (GeneID 41711)	SID104194613	abnormal cell clusters	
eIF3b (GeneID 36981)	SID104186692	reduced axon outgrowth	
CG42534 (GeneID 43298)	SID104194551	axon bundles split apart	
E5 (GeneID 45396)	SID104196377	axon bundles split apart	
CG4278 (GeneID 34970)	SID104182533	axon bundles split apart	
p38b (GeneID 34780)	SID104183378	axon bundles split apart	
Coq2 (GeneID 40988)	SID104201137	sheet-like cell extensions	
Usp5 (GeneID 38375)	SID104188036	too many neurite branches	
CG17127 (GeneID 34489)	SID104182373	too many neurite branches	
ssp5 (GeneID 41465)	SID104194747	axon bundles split apart	
CG14673 (retired record) (GeneID 40688)	SID104192051	reduced axon outgrowth	
CG14995 (GeneID 38487)	SID104188244	too many neurite branches	
nrm (GeneID 40515)	SID104191689	too many neurite branches	
Hsp83 (GeneID 38389)	SID104188456	too many neurite branches	
CG17698 (GeneID 4379919)	SID104191699	too many neurite branches	
lili (GeneID 42956)	SID104193935	too many neurite branches	
CG12464 (GeneID 36516)	SID104185948	too many neurite branches	
Ugt37A2 (GeneID 41573)	SID104195653	reduced axon outgrowth	
CG14883 (GeneID 41997)	SID104194799	axon bundles split apart	

Reformatted: 3 of the entries above
ubl (GeneID 35592) [SID104184790]
- phenotype seen, replicate 1: abnormal cell clusters

St2 (GeneID 41098) [SID104194934]
- phenotype seen, replicate 1: abnormal cell clusters

mdu (GeneID 32201) [SID104199652]
- phenotype seen, replicate 1: abnormal cell clusters

Additional entries:
Gene	PubChem SID	phenotype seen, replicate 1	phenotype seen, replicate 2
CG34056 (GeneID 38106)	SID104188166	abnormal cell clusters	
Nsf2 (GeneID 41694)	SID104201668	too many neurite branches	
Capr (GeneID 59172)	SID104190138	abnormal cell clusters	
CG13992 (GeneID 33831)	SID104182116	cell fragments present	
CG15412 (GeneID 33553)	SID104180219	too many neurite branches	
SCCRO3 (GeneID 36426)	SID104186151	abnormal cell clusters	
trol (GeneID 45320)	SID104198405	abnormal cell clusters	
trol (GeneID 45320)	SID104198606	axon bundles split apart	
l(2)27Cb (retired record) (GeneID 48760)	SID104182550	abnormal cell clusters	
COX6AL2 (GeneID 40066)	SID104189874	abnormal cell clusters	
ND-PDSW (GeneID 44228)	SID104180507	axon bundles split apart	
His4r (GeneID 41773)	SID104196495	abnormal cell clusters	
Orai (GeneID 37040)	SID104185476	axon bundles split apart	
Tango8 (GeneID 50210)	SID104186266	abnormal cell clusters	
CG8870 (GeneID 41645)	SID104196244	abnormal cell clusters	
CG31373 (GeneID 318700)	SID104195844	sheet-like cell extensions	
Bcat (GeneID 32297)	SID104199548	axon bundles split apart	
ND-49 (GeneID 43798)	SID104196943	sheet-like cell extensions	
Ir52b (GeneID 246631)	SID104186055	fewer cells	
RpS19a (GeneID 32635)	SID104200073	too many neurite branches	
kis (GeneID 33185)	SID104180615	reduced axon outgrowth	
jp (GeneID 34274)	SID104182536	sheet-like cell extensions	
stv (GeneID 39518)	SID104189903	axon bundles split apart	
CG17637 (GeneID 40275)	SID104191532	reduced axon outgrowth	
promL (GeneID 38372)	SID104188525	beaded; swollen axons	
CG18095 (GeneID 34823)	SID104181740	too many neurite branches	
seq (GeneID 3772396)	SID104186655	beaded; swollen axons	
bon (GeneID 44235)	SID104196706	sheet-like cell extensions	
Lmx1a (GeneID 39406)	SID104190067	axon bundles split apart	beaded; swollen axons
DIP-kappa (GeneID 318958)	SID104181128	abnormal cell clusters	
hep (GeneID 32256)	SID104199631	abnormal cell clusters	
hep (GeneID 32256)	SID104200129	abnormal cell clusters	
CG13670 (GeneID 38938)	SID104189821	axon bundles split apart	
RpLP2 (GeneID 36855)	SID104187331	sheet-like cell extensions	
fd102C (GeneID 43843)	SID104196995	axon bundles split apart	
Spt20 (GeneID 39522)	SID104190072	too many neurite branches	
CG15098 (GeneID 37174)	SID104186319	axon bundles split apart	
rols (GeneID 39368)	SID104189665	abnormal cell clusters	
CG42258 (GeneID 32196)	SID104199533	axon bundles split apart	
CG42258 (GeneID 32196)	SID104199575	too many neurite branches	
Hibch (GeneID 41869)	SID104195497	too many neurite branches	
mys (GeneID 44885)	SID104198591	abnormal cell clusters	
CG13838 (GeneID 42719)	SID104194480	too many neurite branches	
